# Measured values as given in PubChem BioAssay AID485318 (Broad Institute, 2010).
# Chains of the proteins cited; added tags and fusions are not shown. Lines headed by an entry give the natural chain unless they say otherwise; changes in a name come on top.
# UniProt O15379: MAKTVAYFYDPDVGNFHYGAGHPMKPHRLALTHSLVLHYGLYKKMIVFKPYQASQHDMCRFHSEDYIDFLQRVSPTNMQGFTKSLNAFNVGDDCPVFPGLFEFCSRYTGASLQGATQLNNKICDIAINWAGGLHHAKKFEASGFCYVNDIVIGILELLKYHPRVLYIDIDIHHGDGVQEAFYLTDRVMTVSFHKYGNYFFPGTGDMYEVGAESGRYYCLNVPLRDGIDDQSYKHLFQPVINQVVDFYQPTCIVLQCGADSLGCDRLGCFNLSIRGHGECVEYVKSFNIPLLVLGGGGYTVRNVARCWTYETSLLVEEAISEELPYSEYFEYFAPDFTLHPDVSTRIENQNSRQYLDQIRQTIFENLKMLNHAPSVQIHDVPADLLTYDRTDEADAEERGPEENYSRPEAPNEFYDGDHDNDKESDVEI
# Screen size: about 1,400 compounds; fewer than 10 were called active.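 How the source made its calls: active means fluorescence-lowering compounds whose fitted half-maximal concentration is at or below ten times the highest valid dose tested; inconclusive means flat curve at 30 to 70% inhibition, or poor fit; inactive means the rest.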 The list shows a part of the results.
# Molecular target: Histone deacetylase 3 (Homo sapiens) (UniProt O15379)
# Assay: HDAC3 deacetylase inhibitors, dose response, counter-screen for JMJD2C/GASC1 demethylase inhibitor project, biochemical, fluorescence, cherry-picked samples (AID 485318);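 further: enzyme preincubated with compound before substrate and trypsin were added; 0% = neutral control wells and -100% = SAHA positive control wells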
# Conditions: recombinant HDAC3, fluorogenic peptide/trypsin coupled; at 12 µM (top of the series)
row,Structure (SMILES),"activity change, negative = inhibition"
1,CC1CC(NC(=O)N(C)C)N(C)C(=O)N1 (stereo not given),inactive: -0.63%
2,CC(=O)Nc1ccc(NC(=O)CSc2ncnn2-c2ccccc2)cc1,inactive: -0.219%
3,COc1ccc(OC)c(/C=N/NC(=O)CNC(=O)c2ccc(S(=O)(=O)N3CCOCC3)cc2)c1,inactive: 0.507%
4,CCC(=O)N1CCc2cc(Br)cc(S(=O)(=O)CC(=O)OC)c21,inactive: 0.319%
5,COc1ccc(OC)c(C2=NOC(C(=O)NCCN3CCOCC3)C2)c1 (stereo not given),inactive: 0.208%
6,O=C(NN=C1CCCCCCCCCCC1)c1cccc(S(=O)(=O)N2CCOCC2)c1,inactive: 0.282%
7,COC(C/C=C\[C@H](O)[C@H](C)OCc1ccccc1)OC,inactive: 0.602%
8,OCc1ccc(-c2nn(Cc3ccccc3)c3ccccc23)o1,inactive: 1.34%
9,COc1ccccc1C(=O)OCc1c(-c2ccccc2)ncc2ccccc12,inactive: -0.395%
10,Cn1c(=O)[nH]c(=O)c2c1nc(N1CCOCC1)n2CCc1ccccc1,inactive: 0.223%
11,Cc1cc(Cl)ccc1OCc1nc(-c2ccncc2)no1,inactive: 0.0905%
12,c1ccc(Nc2n[nH]nc2-c2ccccc2)cc1,inactive: 0.651%
13,COc1ccccc1NC(=O)c1cccs1,inactive: 0.291%
14,COc1ccc(CNC(=O)C2(CC3CC(c4ccccc4)=NO3)CCNCC2)cc1 (stereo not given),inactive: -0.0236%
15,CSc1nsc(SCC(=O)Nc2c(C)n(C)n(-c3ccccc3)c2=O)n1,inactive: -0.59%
16,COC(=O)COc1ccc(S(=O)(=O)N2CCOCC2)cc1C,inactive: -0.254%
17,CCN(C[C@H]1N[C@@](C)(C(=O)OC)[C@H]2C(=O)N(C)C(=O)[C@@H]12)C(=O)Nc1ccc(OC)cc1,inactive: -0.229%
18,O=C(CN1C(=O)c2ccccc2C1=O)NCC1COc2ccccc2O1 (stereo not given),inactive: 0.934%
19,CCN(CC(=O)NCC1CCCO1)S(=O)(=O)c1ccc(Cl)cc1 (stereo not given),inactive: 0.153%
20,Cc1[nH][nH]c(=O)c1C(c1c(C)[nH][nH]c1=O)c1cn(Cc2cccc3ccccc23)c2ccccc12,inactive: 0.591%
21,COc1ccc(NC(=O)CCCN(C)S(=O)(=O)c2ccc(C)cc2)cc1,inactive: 0.0926%
22,CC(C)(C)n1nnnc1C(c1cccnc1)N1CCN(c2ccccc2)CC1 (stereo not given),inactive: 0.251%
23,COc1cc(NC(=O)CSc2nnnn2Cc2ccc3c(c2)OCO3)cc(OC)c1,inactive: 0.326%
24,Cc1ccc(O)c(C(=O)c2cc(C#N)c(=O)n(CC3CCCO3)c2)c1 (stereo not given),inactive: -0.325%
25,COc1ccccc1-n1c(SCC(=O)N2CCCC2)nc2cccnc21,inactive: 0.166%
26,Cc1ccc(NC(=O)C(=O)NCCN2CCN(C(=O)C(c3ccccc3)c3ccccc3)CC2)cc1,inactive: -0.583%
27,CCOC(=O)C1=C(Cc2ccc(F)cc2)C(=O)c2ccccc2C1=O,inactive: 0.102%
28,Cc1ccc(C(=O)NCC(=O)OCC(=O)Nc2ccc(Cl)cc2C(F)(F)F)cc1C,inactive: -0.15%
29,COc1ccc(NC(=O)N(C)C[C@H]2Oc3c(NC(=O)Nc4ccccc4)cccc3C(=O)N([C@H](C)CO)C[C@@H]2C)cc1,inactive: -0.0534%
30,Brc1ccc(-c2csc(N3CCc4ccccc4C3)n2)cc1,inactive: -0.797%

# In another format: results already given
row	Structure (SMILES)	activity change, negative = inhibition
7	COC(C/C=C\[C@H](O)[C@H](C)OCc1ccccc1)OC	inactive: 0.602%
12	c1ccc(Nc2n[nH]nc2-c2ccccc2)cc1	inactive: 0.651%
14	COc1ccc(CNC(=O)C2(CC3CC(c4ccccc4)=NO3)CCNCC2)cc1 (stereo not given)	inactive: -0.0236%
15	CSc1nsc(SCC(=O)Nc2c(C)n(C)n(-c3ccccc3)c2=O)n1	inactive: -0.59%
17	CCN(C[C@H]1N[C@@](C)(C(=O)OC)[C@H]2C(=O)N(C)C(=O)[C@@H]12)C(=O)Nc1ccc(OC)cc1	inactive: -0.229%
20	Cc1[nH][nH]c(=O)c1C(c1c(C)[nH][nH]c1=O)c1cn(Cc2cccc3ccccc23)c2ccccc12	inactive: 0.591%
28	Cc1ccc(C(=O)NCC(=O)OCC(=O)Nc2ccc(Cl)cc2C(F)(F)F)cc1C	inactive: -0.15%
29	COc1ccc(NC(=O)N(C)C[C@H]2Oc3c(NC(=O)Nc4ccccc4)cccc3C(=O)N([C@H](C)CO)C[C@@H]2C)cc1	inactive: -0.0534%
30	Brc1ccc(-c2csc(N3CCc4ccccc4C3)n2)cc1	inactive: -0.797%
